According to article PMC5996148:
This is one part of the list. For some of these results: The exact form of the protein is not confirmed.

Columns and labels:
Assay in all cases: protein microarray (ProtoArray v5.0), streptavidin-Alexa Fluor 647
Settings in all cases: 3'-biotin; 20 mM Tris (pH 7.5), 5 mM MgCl2, 100 mM KCl, 0.1% Tween-20, A/T-rich and random oligonucleotide blockers; temperature not stated; high values mean tight binding
[1] = target: T1, SPATS2 (UniProt Q86XZ4)
T1 sequence: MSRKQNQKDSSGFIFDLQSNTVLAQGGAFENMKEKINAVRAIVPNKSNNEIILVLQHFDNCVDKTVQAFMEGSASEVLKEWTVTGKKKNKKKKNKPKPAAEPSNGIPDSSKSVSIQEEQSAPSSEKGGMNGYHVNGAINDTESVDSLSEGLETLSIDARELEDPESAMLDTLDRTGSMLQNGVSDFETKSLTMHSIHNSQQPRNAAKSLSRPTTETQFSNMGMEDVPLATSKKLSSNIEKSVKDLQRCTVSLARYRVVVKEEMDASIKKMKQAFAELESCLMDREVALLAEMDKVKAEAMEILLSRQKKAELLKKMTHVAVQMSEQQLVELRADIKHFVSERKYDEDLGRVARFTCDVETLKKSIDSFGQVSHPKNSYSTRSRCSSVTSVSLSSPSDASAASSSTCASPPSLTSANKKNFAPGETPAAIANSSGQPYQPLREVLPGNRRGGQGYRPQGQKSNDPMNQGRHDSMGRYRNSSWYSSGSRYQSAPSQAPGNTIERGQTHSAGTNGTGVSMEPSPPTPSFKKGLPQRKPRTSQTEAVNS

[2] = system: SPDEF (human)
[3] = system: SPG21 (human)
[4] = system: SPHK1 (human)
[5] = target: T2, SPRR4 (UniProt Q96PI1)
T2 sequence: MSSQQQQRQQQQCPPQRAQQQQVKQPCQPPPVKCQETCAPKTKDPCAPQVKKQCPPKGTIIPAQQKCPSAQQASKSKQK

[6] = system: SRPX2 (human)
[7] = target: T3, SS18L2 (UniProt Q9UHA2)
T3 sequence: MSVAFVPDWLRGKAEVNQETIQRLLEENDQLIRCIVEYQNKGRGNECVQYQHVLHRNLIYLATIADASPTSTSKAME

[8] = system: SSBP3 (human)
[9] = system: SSPN (human)
[10] = system: STAM (human)

## GGTGACAGGGGTATGGGGAGGGG [G4-2 biotinylated (Ct1)]
[1]
  binding signal: 3.78 z-score
[2]
  binding signal: -0.387 z-score
[3]
  binding signal: -0.406 z-score
[4]
  binding signal: -0.38 z-score
[5]
  binding signal: 6.44 z-score
[6]
  binding signal: -0.366 z-score
[7]
  binding signal: -0.399 z-score
[8]
  binding signal: -0.409 z-score
[9]
  binding signal: -0.361 z-score
[10]
  binding signal: -0.358 z-score
